Sequences of proteins named here, by UniProt entry; tags and fusion partners are left off. A change or cut given only in a name is not applied to a line headed by its entry.
UniProt P18054: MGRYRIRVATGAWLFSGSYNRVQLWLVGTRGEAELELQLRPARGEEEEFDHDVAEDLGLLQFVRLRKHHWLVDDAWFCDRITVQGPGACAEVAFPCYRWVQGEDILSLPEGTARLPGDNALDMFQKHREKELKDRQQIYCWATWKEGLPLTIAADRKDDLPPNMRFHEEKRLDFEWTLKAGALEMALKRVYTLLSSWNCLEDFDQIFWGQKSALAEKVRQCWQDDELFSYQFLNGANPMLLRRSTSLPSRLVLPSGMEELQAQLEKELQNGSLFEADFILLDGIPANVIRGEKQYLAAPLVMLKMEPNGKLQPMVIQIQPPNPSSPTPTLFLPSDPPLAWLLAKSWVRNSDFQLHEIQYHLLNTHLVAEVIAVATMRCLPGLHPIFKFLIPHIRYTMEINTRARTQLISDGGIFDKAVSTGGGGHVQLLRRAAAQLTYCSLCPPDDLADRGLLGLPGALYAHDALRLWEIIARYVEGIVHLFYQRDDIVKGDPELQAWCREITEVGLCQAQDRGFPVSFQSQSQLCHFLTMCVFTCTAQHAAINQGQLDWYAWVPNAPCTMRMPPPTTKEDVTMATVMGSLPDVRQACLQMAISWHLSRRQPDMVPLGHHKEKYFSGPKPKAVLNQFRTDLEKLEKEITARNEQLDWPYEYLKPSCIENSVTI

Where “and” joins values, the source holds several entries; their conditions need not be identical. Equal values may be shown once. In all, about 580,000 compounds went through this assay and about 6,100 (1.1%) were called active. The shares of active, inactive and inconclusive entries below differ from those in the screen. The call rests on the fitted dose curve; in most records, active means well fitted inhibition curve with a large enough effect; inconclusive means small, poorly fitted or top-dose-only effect, or another doubt; inactive means no such curve, though single readings can be large or run the other way. Where the call is inconclusive, the potency comes from a doubtful curve fit.
These compounds were tested against Polyunsaturated fatty acid lipoxygenase ALOX12 (Homo sapiens) (UniProt P18054) (assay: Primary qHTS assay for inhibitors of human arachidonate 12S-lipoxygenase (ALOX12): Round 2). Conditions: purified 12hLO, xylenol orange hydroperoxide absorbance; activity change, negative = inhibition: at 108 µM (top of the series) unless noted.
In short: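 Hydroperoxide product was detected by ferrous iron/xylenol orange as the 573 to 405 nm absorbance ratio. Arachidonic acid at 40 uM (final) was turned over for 30 min at room temperature by 150 nM human 12hLO, pH 7.0 Hepes buffer, after 15 min compound preincubation.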
For `Cc1ccccc1N=C1SC(CC(=O)Nc2ccc3ccccc3c2)C(=O)N1Cc1ccccn1` (stereo not given), the “activity change, negative = inhibition” value was inactive: -18.7%. `C[C@@H]1CN([C@@H](C)CO)C(=O)c2cc(NC(=O)Nc3cccc4ccccc34)ccc2O[C@@H](C)CCCCO[C@H]1CN(C)C(=O)c1ccccc1` was tested, and the “activity change, negative = inhibition” value was inactive: 2.9%. In the case of `COc1ccc(-c2oc3c(CC=C(C)C)c(OC4O[C@H](CO)[C@@H](O)[C@H](O)[C@@H]4O)cc(O)c3c(=O)c2OC2O[C@@H](C)[C@H](O)[C@@H](O)[C@@H]2O)cc1` (stereo not given in full), the Potency is reported as inconclusive: 15.3 µM [inhibitor, partial curve]. In the case of `CCOC(=O)C1=C(O)/C(=C/c2ccc(CNC(=O)C(=O)Nc3ccc(C)cc3)o2)N=C1C`, the Potency is reported as inconclusive: 2.82 µM [inhibitor, full curve, poor fit]. For `Cc1ccc(Cl)cc1N1CCN(C(=O)c2ccc(C)c(-n3c(C)nc4cccnc43)c2)CC1`, the Potency was inconclusive: 141 µM [inhibitor, single point]. `CCCCCCN1C[C@H](n2cc(COC(=O)c3ccccc3)nn2)[C@@H](O)C[C@@H]1c1ccc(Cl)cc1` was tested, and the Potency was inconclusive: 112 µM [inhibitor, single point]. With `Cc1cc(C(F)F)n2nc(C(=O)Nc3ccc(F)c(Cl)c3)nc2n1` the Potency was inconclusive: 141 µM [inhibitor, partial curve, poor fit]. `COc1ccc2cc(CNC(=O)CNC(=O)c3ccc(C(F)(F)F)cc3)ccc2c1` was tested, and the Potency was inconclusive: 50.1 µM [inhibitor, single point]. With `CCCCc1ccc(C(=O)N/C(=C\c2ccc(C)cc2)C(=O)NC2CCCCC2)cc1` the Potency was inconclusive: 63.1 µM [inhibitor, partial curve, poor fit]. With `COCC1CN(C(=O)NC2CCCC2)CC12CCNCC2` (stereo not given) the “activity change, negative = inhibition” value was inactive: 6.33%. With `C/C(=N/NS(=O)(=O)c1ccc(C)cc1C)c1ccc2c(c1)OCO2` the Potency was inconclusive: 44.7 µM [inhibitor, single point]. `CC(=O)Nc1ccc(OS(=O)(=O)c2cc(Cl)ccc2C)cc1` was tested, and the Potency was inconclusive: 70.8 µM [inhibitor, partial curve, poor fit]. In the case of `Nc1ccccc1SC1CC(=O)N(c2ccc(Cl)c(Cl)c2)C1=O` (stereo not given), the “activity change, negative = inhibition” value is reported as inactive: -7.49%. `CC(NC(=O)c1c(O)c2ccccc2n(C)c1=O)c1ccccc1` (stereo not given) was tested, and the Potency was inconclusive: 44.7 µM [inhibitor, partial curve, poor fit]. In the case of `COc1cccc(C(=O)NC2CCN(CC(=O)Nc3nccs3)CC2)c1`, the “activity change, negative = inhibition” value is reported as inactive: -8.5%. With `CCOC(=O)/C(C)=C1\NC(C)(C)Cc2ccccc21` the Potency was active: 15.8 µM. In the case of `COc1ccccc1C(=O)NNC(=S)NC(=O)c1cccs1`, the “activity change, negative = inhibition” value is reported as inactive: 94.6%. In the case of `Cc1ccc(OCCCC(=O)Nc2ccc(N3CCOCC3)cc2)c(C)c1`, the Potency is reported as inconclusive: 12.6 µM [inhibitor, partial curve, poor fit]. With `CN(Cc1nc(-c2ccncc2)no1)S(=O)(=O)c1ccc(Br)cc1` the Potency was inconclusive: 56.2 µM [inhibitor, partial curve, poor fit]. With `Clc1ccccc1-c1ccc2ncnc(N3CCNCC3)c2c1` the Potency was inconclusive: 3.98 µM [inhibitor, full curve, poor fit]. In the case of `CCOC(=O)c1cc2c(C)cc(C)cc2[nH]1`, the Potency is reported as inconclusive: 28.2 µM [inhibitor, partial curve, poor fit]. `CC(C)=CCN1CCN(CCC2=C(C)CCCC2(C)C)CC1CCO` (stereo not given) was tested, and the Potency was inconclusive: 50.1 µM [inhibitor, partial curve, poor fit]. With `O=C(O)C1OC(C(=O)O)C2C1C(F)(F)C2(F)F` (stereo not given) the Potency was inconclusive: 0.631 µM [inhibitor, full curve, poor fit]. `Cc1cc(=O)oc2cc(OC(=O)C(C)Oc3ccccc3Cl)ccc12` (stereo not given) was tested, and the Potency was inconclusive: 100 µM [inhibitor, single point]. With `CCOC(=O)C1CSC(CC(=O)Nc2ccc(Cl)c(Cl)c2)C(=O)N1` (stereo not given) the Potency was inconclusive: 79.4 µM [inhibitor, single point]. With `CCN(CC)Cc1ccccc1CNC(=O)c1cc2cccc(OC)c2oc1=O` the Potency was inconclusive: 50.1 µM [inhibitor, single point]. With `COc1ccccc1N1CCN(C(=O)C2CC(=O)N(c3n[nH]c4cccc(F)c34)C2)CC1` (stereo not given) the “activity change, negative = inhibition” value was inactive: -13%. `CCCCc1cc(=O)oc2cc(OC(C)C(=O)NCCCO)ccc12` (stereo not given) was tested, and the “activity change, negative = inhibition” value was inactive: 2.64%. In the case of `O=[N+]([O-])c1ccc(CN2[C@H](COCc3ccccc3)C=CS2(=O)=O)cc1`, the Potency is reported as inconclusive: 5.62 µM [inhibitor, full curve, poor fit]. `CCN=C1NC(c2ccc(C(F)(F)F)cc2)C(C(=O)OC)=C(C)N1Cc1cccc(C(F)(F)F)c1` (stereo not given) was tested, and the Potency was inconclusive: 44.7 µM [inhibitor, partial curve, poor fit]. In the case of `Cc1ccc(C)c(N2CCN(C(c3ccccc3)c3nnnn3C(C)(C)C)CC2)c1` (stereo not given), the “activity change, negative = inhibition” value is reported as inactive: 17.4%. `C[N+]12CCCCC1C(COC(=O)c1ccc3c(c1)OCO3)CCC2` (stereo not given) was tested, and the Potency was inconclusive: 7.08 µM [inhibitor, full curve]. `CCc1cccc2c(C(=O)C(=O)Nc3ccc4c(c3)OCCO4)c[nH]c12` was tested, and the “activity change, negative = inhibition” value was inactive: 26.9%. `Cc1cccc(C(=O)Nc2ccccc2C(=O)NCc2ccco2)c1` was tested, and the Potency was inconclusive: 39.8 µM [inhibitor, partial curve, poor fit]. `COc1ccc(S(=O)(=O)N2CCN(C(=O)c3cc4c(s3)CCC4)CC2)cc1` was tested, and the Potency was inconclusive: 44.7 µM [inhibitor, partial curve, poor fit]. `CCN(C(=O)C(C)S(=O)(=O)Cc1ccc(F)cc1Cl)c1ccccc1` (stereo not given) was tested, and the “activity change, negative = inhibition” value was inactive: -26%. With `CN(C)c1ccc(CN(C(=O)COc2ccccc2)C2CCS(=O)(=O)C2)cc1` (stereo not given) the Potency was inconclusive: 7.94 µM [inhibitor, full curve, poor fit]. With `Cc1ccsc1/C=N/Nc1nc2ccccc2s1` the Potency was inconclusive: 126 µM [inhibitor, partial curve, poor fit]. `COc1cc(OC)c(C2=CCN(C(=O)COc3ccc(F)cc3)CC2)c(OC)c1` was tested, and the “activity change, negative = inhibition” value was inactive: 34.4%. In the case of `CCC(=C/c1sc2ccc3ccccc3c2[n+]1C)/C=C1\Sc2ccc3ccccc3c2N1C`, the Potency is reported as active: 39.8 µM. In the case of `CC1(C)CC(=O)C=C(c2ccc(Cl)c(C(F)(F)F)c2)C1`, the Potency is reported as inconclusive: 56.2 µM [inhibitor, partial curve, poor fit]. For `COc1ccc(S(=O)(=O)N(C)c2ccc(C(=O)NCc3ccco3)cc2)cc1`, the Potency was inconclusive: 100 µM [inhibitor, single point]. In the case of `Cc1nc2c(c(N(C)Cc3noc(C4CCCC4)n3)n1)CCNCC2`, the Potency is reported as inconclusive: 14.1 µM [inhibitor, partial curve]. In the case of `CC(=O)Oc1ccc(Cl)cc1/C=C/c1cc(OC(C)=O)c2ccccc2n1`, the Potency is reported as inconclusive: 79.4 µM [inhibitor, partial curve, poor fit]. In the case of `NS(=O)(=O)c1ccc(NNC(=O)/C=C/c2cccs2)c([N+](=O)[O-])c1`, the Potency is reported as inconclusive: 0.316 µM [inhibitor, full curve, poor fit]. With `Cc1ccc(S(=O)(=O)N2[C@@H](c3ccc(Cl)cc3)C(C(=O)O)=CC[C@H]2c2cccs2)cc1` the Potency was inconclusive: 56.2 µM [inhibitor, partial curve, poor fit]. In the case of `COC(=O)C1=C(CN2CCN(c3ccccn3)CC2)NC(=O)NC1c1ccc(C)cc1` (stereo not given), the Potency is reported as inconclusive: 12.6 µM [inhibitor, full curve, poor fit]. With `O=P1(O)C=C(c2ccccc2)OC(c2ccccc2)=C1` the Potency was inconclusive: 126 µM [inhibitor, partial curve, poor fit]. For `Cc1cc(C=C2C(=O)CCCC2=O)c(C)n1-c1ccccc1`, the Potency was inconclusive: 50.1 µM [inhibitor, partial curve, poor fit]. With `CCN1CCC(N(Cc2ccc3c(c2)OCO3)C(=O)Nc2ccc(Br)c(C)c2)CC1` the Potency was inconclusive: 100 µM [inhibitor, single point]. In the case of `O=C(CCC[C@@H]1[C@H]2CCCN3CCC[C@@H](CN1Cc1ccccc1)[C@@H]23)NCCCn1cccn1`, the “activity change, negative = inhibition” value is reported as inactive: 25.2%. For `COc1ccccc1N1CCN([C@@H]2[C@H](O)[C@H](CO)O[C@@H]2CNC(=O)Nc2ccc(F)cc2F)CC1`, the Potency was inconclusive: 20 µM [inhibitor, full curve]. For `Cc1ccc(Nc2nc(CN3CCN(S(=O)(=O)c4ccc(F)c(F)c4)CC3)cs2)cc1`, the Potency was inconclusive: 5.62 µM [inhibitor, partial curve, poor fit]. For `N#Cc1cccnc1N1CCCC(CO)(Cc2ccc(F)cc2F)C1` (stereo not given), the Potency was inconclusive: 17.8 µM [inhibitor, full curve]. With `COc1cccc(N2C(=O)NC(=NC3CCCCC3)C23CCN(Cc2ccc(F)cc2)CC3)c1` the Potency was inconclusive: 79.4 µM [inhibitor, partial curve, poor fit]. `O=C(c1cccs1)N1CCC(N[C@H](c2ccccc2)C2CC(O)C2)CC1` (stereo not given in full) was tested, and the “activity change, negative = inhibition” value was inactive: 64.4%. `CCN(CC)c1ncnc2c1ncn2[C@@H]1O[C@@H](COP(=O)(O)OP(=O)(O)C(Br)(Br)P(=O)(O)O)[C@H](O)[C@H]1O` was tested, and the Potency was inconclusive: 7.94 µM [inhibitor, partial curve, poor fit]. With `COc1ccc(-n2c(-c3ccco3)nc3c(cnn3-c3ccc(C)cc3)c2=O)cc1` the Potency was inconclusive: 20 µM [inhibitor, partial curve, poor fit] and inconclusive: 70.8 µM [inhibitor, partial curve, poor fit]. `Cc1ccc(C(=O)NNCC(=O)Nc2ccc(Cl)cc2F)cc1` was tested, and the Potency was active: 15.8 µM. `O=c1cc2c(nn1Cc1c(Cl)cccc1Cl)-c1ccccc1CC2` was tested, and the Potency was inconclusive: 1.78 µM [inhibitor, full curve, poor fit].
On the % scale 0 is the no-effect control and ±100 the full control effect; potency means the concentration at half of the fitted maximal effect.
